Assay results from PubChem BioAssay AID504648 (National Center for Advancing Translational Sciences (NCATS), 2011).
Out of some 390,000 compounds screened, about 610 (0.16%) were called active. Inconclusive results, whose numbers are uncertain, are shown with a selection of clear calls. Calls come from the whole dose curve; as a rule, active = well fitted inhibition curve with a large enough effect; inconclusive = small, poorly fitted or top-dose-only effect, or effect the other way, or another doubt; inactive = no such curve, though single readings can be large or run the other way. Where the call is inconclusive, the potency comes from a doubtful curve fit.

Experiment: Nrf2 qHTS screen for inhibitors: counterscreen for cytotoxicity
Conditions: A549 ARE-Fluc cells, CellTiter-Fluor viability, 18-24 h; series mostly up to 46 µM
Procedure, shortened: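 A549 ARE_Fluc cells in 5% FBS OPTI-MEM were exposed to compounds in concentration-response for 18-24 h at 37 deg C. Viability was read by CellTiter-Fluor fluorescence (Ex 405/Em 525) after 30 min, before the luciferase read.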
Potency is the fitted concentration of half-maximal effect.

Row | SMILES | Potency
1 | COc1ccc2c(c1)C1C=CCC1C(c1cc3c(cc1Br)OCO3)N2 (stereo unspecified) | inconclusive: 25.9 µM [falling, single point]
2 | CC(C)C1Nc2c(O)cc(Cl)c([N+](=O)[O-])c2C2C=CCC21 (stereo unspecified) | inconclusive: 16.4 µM [falling, partial curve, poor fit]
3 | Cc1ccc(NC(=O)CN(Cc2ccco2)Cc2ccccc2O)cc1C | inconclusive: 18.4 µM [falling, single point]
4 | Cc1cccc(-c2nnc(-c3cccc(NC(=O)Cc4cccs4)c3)o2)c1 | inconclusive: 29.1 µM [falling, single point]
5 | CCOC(=O)C(CC)(CC)C(=O)/C=C/c1ccc(OC)cc1 | inconclusive: 16.4 µM [activator, partial curve, poor fit]
6 | CCNc1nc(SC)nc(N(C#N)CC(=O)OC)n1 | inconclusive: 14.6 µM [falling, partial curve, poor fit]
7 | Fc1ccc(/C=C2\CCCC3=C2Nc2ncnn2C3c2ccc(F)cc2)cc1 (stereo unspecified) | inconclusive: 25.9 µM [falling, single point]
8 | Cc1ccc(NC2CCCN(C(=O)c3snnc3C)C2)cc1C (stereo unspecified) | inconclusive: 6.51 µM [activator, single point]
9 | Fc1ccccc1/C=N/NC(=S)Nc1ccc(Cl)cc1Cl | inconclusive: 20.6 µM [falling, partial curve, poor fit]
10 | CC(CCc1ccccc1)NC(=O)Cn1c(=O)nc(-c2ccccc2)c2cc(Cl)ccc21 (stereo unspecified) | inconclusive: 16.4 µM [falling, single point]
11 | CCc1ccc2oc(C(=O)N(Cc3ccc(N(C)C)cc3)Cc3ccco3)c(C)c2c1 | inactive
12 | Cc1cc(=O)c2cc(Br)ccc2[nH]1 | inconclusive: 18.4 µM [falling, partial curve, poor fit]
13 | COc1ccc2c(CNCCc3ccc(SC)cc3)c(C(=O)O)n(Cc3ccc(F)cc3)c2c1 | inconclusive: 23.1 µM [falling, single point]
14 | COc1ccc2oc3cc(C)[n+]([O-])c(-c4ccc(C)cc4)c3c2c1 | inconclusive: 25.9 µM [falling, single point]
15 | CCOc1ccc(-c2nc(C#N)c(N3CCN(C)CC3)o2)cc1 | inactive
16 | CCN(CC)c1ccc2cc(S(=O)(=O)c3ccc(Cl)cc3)c(=O)oc2c1 | inconclusive: 25.9 µM [activator, single point]
17 | O=c1cc(-c2ccc(O)cc2)oc2c([C@@H]3O[C@H](CO)[C@@H](O)[C@H](O)[C@H]3O)c(O)c([C@@H]3O[C@H](CO)[C@@H](O)[C@H](O)[C@H]3O)c(O)c12 | inconclusive: 13 µM [falling, partial curve]
18 | Cc1ccc(C(C)C)c(OCc2ccc(C(=O)N/N=C/c3cccc(O)c3O)cc2)c1 | inconclusive: 23.1 µM [falling, partial curve, poor fit]
19 | CCC(Sc1nc2c(sc3ccccc32)c(=O)n1CCc1ccc(OC)c(OC)c1)C(=O)N(CC)CC (stereo unspecified) | inconclusive: 13 µM [falling, partial curve]
20 | CCn1ncc(/C=C/C(=O)Nc2c(C)nn(Cc3ccc(Cl)cc3Cl)c2C)c1C | inconclusive: 10.3 µM [falling, partial curve]
21 | C#CCOCCOCCOCCNc1nc(N2CCN(C(=O)CCCCCCCCCCNC(=O)Cn3cc(C[C@@H](C)O)nn3)CC2)nc(N2CCN(C(=O)CCCCCCCCCCNC(=O)[C@@H]([C@H](C)CC)n3cc(CCCCCN)nn3)CC2)n1 | inconclusive: 29.1 µM [falling, single point]
22 | CCS(=O)(=O)c1ncc(Cl)c(C(=O)N2CCN(c3ccc(OC)cc3)CC2)n1 | inconclusive: 18.4 µM [falling, single point]

Row | SMILES | Potency
23 | Cc1cccc(OCC(=O)Nc2ccc(N3CCN(C(=O)c4ccco4)CC3)cc2)c1 | inactive
24 | COc1ccc(CNC(=O)Cc2c(C)c3cc4c(C)coc4cc3oc2=O)cc1OC | inactive
25 | CCCCOc1cccc(OCC(=O)Nc2nc3ccccc3[nH]2)c1 | inconclusive: 32.6 µM [activator, partial curve, poor fit]
26 | CCc1cc2ccc(OC)cc2nc1SCC(=O)N1CCN(C(=O)c2ccco2)CC1 | inactive
27 | CN(C)/C=C/C(=O)c1cc(N2CCOCC2)ccc1[N+](=O)[O-] | inconclusive: 18.4 µM [falling, partial curve, poor fit]
28 | CCN(CC)C(=O)c1sc2c(c1C)c(=O)n(Cc1ccccc1)c(=O)n2Cc1ccccc1C | inactive
29 | COc1ccc(N2CCN(C(=O)CSc3nc(-c4ccc(C(C)C)cc4)no3)CC2)cc1 | inactive
30 | CC(C)OCCCN(C)C1CCN(S(=O)(=O)c2ccc(-c3ccc(=O)[nH]n3)s2)CC1 | inconclusive: 7.31 µM [activator, partial curve, poor fit]
31 | COc1cccc(NC(=O)C2CCC(CNS(=O)(=O)c3ccc4c(c3)CCCC(=O)N4)CC2)c1 (stereo unspecified) | inactive
32 | O=C1C=C(c2ccc(Cl)c(C(F)(F)F)c2)C[C@@H](c2ccc3c(c2)OCO3)C1 | inconclusive: 32.6 µM [falling, partial curve, poor fit]
33 | COc1ccc(CN2CCN(C3CCC3)CC2CCO)cc1C (stereo unspecified) | inactive
34 | CC1CCC(NS(=O)(=O)c2cccc3nsnc23)CC1 (stereo unspecified) | inactive
35 | N#Cc1c(C(F)(F)F)cc(=O)n2c1[nH]c1ccccc12 | inconclusive: 16.4 µM [activator, partial curve]
36 | Cc1ccc(Oc2nnc(-c3cccs3)c3ccccc23)cc1C | inactive
37 | COCCn1c(N)c(C#N)c2nc3ccccc3nc21 | inconclusive: 18.4 µM [activator, single point]
38 | O=C(N1CCN(c2ccccc2F)CC1)C12CC3CC(CC(C3)C1)C2 | inconclusive: 1.64 µM [activator, partial curve, poor fit]
39 | CCCN(CC(=O)Nc1ccccc1OC)C(=O)c1ccc(=O)[nH]c1 | inactive
40 | CCOc1ccc(CCNC(=O)c2cc3c(-c4ccccc4F)nn(C)c3s2)cc1 | inactive
41 | CSc1nc(NCCOCCO)c2sc3nc(-c4ccco4)c4c(c3c2n1)CCC4 | inconclusive: 29.1 µM [falling, single point]
42 | COc1ccc(C(=O)Nn2c(SCC(=O)N3CCC(C)CC3)nc3ccccc3c2=O)cc1 | inconclusive: 3.26 µM [activator, partial curve, poor fit]
43 | COc1ccc(NC(=O)/C=C\C(=O)N(c2ccc(C(C)C)cc2)C(C(=O)NCc2ccco2)c2ccc(C)cc2)cc1 (stereo unspecified) | inconclusive: 16.4 µM [falling, single point]
44 | CC[C@]1(c2ccccc2C)ON(c2ccccc2C(F)(F)F)C1=O | inactive

Individual results from above:
Potency, `CC[C@]1(c2ccccc2C)ON(c2ccccc2C(F)(F)F)C1=O` is entered as inactive
Potency, `COCCn1c(N)c(C#N)c2nc3ccccc3nc21` is entered as inconclusive: 18.4 µM [activator, single point]

More entries follow.

Row | SMILES | Potency
45 | O=C(Nc1ccc(Oc2c(F)c(F)c(F)c(F)c2F)cc1)OC1CCN2Cc3ccccc3N=C12 (stereo unspecified) | active: 20.6 µM
46 | Cc1nn(CCc2nn[nH]n2)c2nc(-c3ccc(Br)cc3)cc(C(F)(F)F)c12 | inconclusive: 10.3 µM [falling, partial curve, poor fit]
47 | COc1cccc(Nc2nc3cc(C)ccc3nc2NS(=O)(=O)c2ccc(Cl)cc2)c1 | inconclusive: 5.8 µM [falling, partial curve]
48 | CC1(C)Cc2ccccc2C(NNC(=O)c2cccnc2)=N1 | inactive
49 | Clc1ccc(C[n+]2csc3ccccc32)cc1 | inactive
50 | COc1cc([N+](=O)[O-])ccc1NC(=S)NNC(=O)CCC(=O)Nc1ccccc1Cl | inactive
51 | CCOc1cc(/C=C2\CCCc3c2nc2ccccc2c3C(=O)O)ccc1OC | inconclusive: 20.6 µM [activator, single point]
52 | Cc1ccc(CNC(=O)Cn2c(SCC(=O)Nc3ccc(F)cc3)nc3ccccc32)cc1 | inconclusive: 16.4 µM [falling, single point]
53 | COc1ccc(C)cc1S(=O)(=O)NNc1nc(C)cc(C)n1 | inactive
54 | Cc1nc2ccccc2n1-c1ccccc1 | inactive
55 | CC1C(=O)N(Cc2cccc(F)c2)c2ccccc2N1C(=O)c1ccccc1 (stereo unspecified) | inactive
56 | COc1cccc(C(=O)NCCc2csc3nc(-c4ccccc4F)nn23)c1OC | inactive
57 | CC(=O)Nc1cc2nn(-c3ccccc3)nc2cc1Cl | inactive
58 | N#Cc1c(N2CCCC2)nc(N)c2c(N)nc(N3CCCC3)cc12 | inconclusive: 29.1 µM [falling, partial curve, poor fit]
59 | C/C(=N\NC(=O)c1ccc(-c2ccccc2)cc1)C1C(=O)c2ccccc2C1=O | inconclusive: 18.4 µM [falling, partial curve, poor fit]
60 | O=C1OCCN1C(=O)[C@H]1[C@H](c2ccc([N+](=O)[O-])cc2)C(c2cccc(Cl)c2)=NN1c1ccccc1 | inactive
61 | O=C1C=C(c2ccc(O)cc2)C[C@@H](c2ccc3c(c2)OCO3)C1 | inconclusive: 18.4 µM [falling, single point]
62 | COc1cc2[nH]c(=O)n(CCC(=O)N3CCN(Cc4ccc5c(c4)OCO5)CC3)c(=O)c2cc1OC | inconclusive: 23.1 µM [activator, partial curve, poor fit]
63 | Fc1cnc(N2CCN(c3ccccc3)CC2)nc1N1CCN(c2ccccc2)CC1 | inconclusive: 29.1 µM [falling, single point]
64 | NS(=O)(=O)c1ccc(NC(=O)COC(=O)C2(c3ccccc3F)CCCC2)cc1 | inconclusive: 23.1 µM [falling, single point]
65 | Cc1nc2cc(-c3ccccc3)nn2c(C)c1CCC(=O)N1CCN(c2ccc(F)cc2)CC1 | inactive
66 | Cc1ccc(NC(=S)N(CCCN2CCCC2)Cc2cccn2Cc2ccc(Cl)cc2)cc1C | inconclusive: 18.4 µM [falling, single point]
